Laboratory results as given in PubChem BioAssay AID540303 (National Center for Advancing Translational Sciences (NCATS), 2011).
Among all 330,000 compounds or so, about 1,000 (0.3%) were called active. Inconclusive results, whose numbers are uncertain, are shown with a selection of clear calls. Calls follow the shape of the dose curve; as a rule, active = well fitted inhibition curve with a large enough effect; inconclusive = small, poorly fitted or top-dose-only effect; inactive = no such curve, though single readings can be large or run the other way; tested in mouse RAW 264.7 cells. A potency beside an inconclusive call is a rough fit, not a confirmed value.

assay: qHTS for Inhibitors of Cell Surface uPA Generation; conditions: cell surface uPA generation assay; series mostly up to 38.3 µM; activity change, negative = inhibition: at the top concentration; also: nearly all actives have a fitted effect of over 55% in size
In short: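 RAW 264.7 cells (4000/well) were plated overnight at 37 C and then given compounds in a 1:5 series (up to 38.3 uM final) plus reagent for 24 h. Intracellular ATP was measured by ATP-Lite luminescence and stays elevated when uPA-dependent LF entry is blocked.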
% is scaled to controls: 0 for no effect and ±100 for the full control effect; potency is read from the fitted curve at half-maximal effect.

Structure (SMILES) | Potency | activity change, negative = inhibition
CCN(CC)CCCNC(=O)c1cc2c(-c3ccc(Cl)cc3)nn(C)c2s1 | inconclusive: 28.2 µM [inhibitor, single point] | 
O=C(Nc1ccc(S(=O)(=O)Nc2nccs2)cc1)c1cccc(N2C(=O)c3ccccc3C2=O)c1 |  | inactive: 18.6%
CCOC(=O)c1ccc(NC(=O)Nn2cnnc2)cc1 |  | inactive: 0.937%
COc1ccc(NC(=O)CN(C)C(=O)c2cccc(S(=O)(=O)N3CCN(c4ccc(F)cc4)CC3)c2)cc1 | inconclusive: 5.62 µM [inhibitor, partial curve, poor fit] | 
CCCCCCC1CC(=O)NC(=S)N1 (stereo not given) | inconclusive: 2.51 µM [inhibitor, full curve, poor fit] | 
NC(N)=N/N=C(\N=Nc1ccccc1)c1ccc(Cl)cc1 |  | inactive: -3.08%
O=c1[nH]c2cc3c(cc2cc1CN(Cc1ccco1)C(=S)NCC1CCCO1)OCCO3 (stereo not given) | active: 12.6 µM | 
CC(O)CC(C(=O)NNc1ccccc1)C(=O)NNc1ccccc1 (stereo not given) |  | inactive: 3.99%
CCN(CC)c1ccc(/C=N/N=C(N)N)c(O)c1 | inconclusive: 1.26 µM [inhibitor, partial curve] | 
CCOc1ccc(C(C)=O)cc1N1C(=O)C2C(C1=O)C1C=CC2C12CC2 (stereo not given) |  | inactive: -10.3%
COC(=O)N1C(=O)[C@](CC(C)C)(c2ccccc2)N1C(=O)OC | inconclusive: 12.6 µM [inhibitor, partial curve, poor fit] | 
Cc1cc(C(=O)NP(=O)(N2CC(C)OC(C)C2)N2CC(C)OC(C)C2)c(C)n1C1CC1 (stereo not given) |  | inactive: -2.24%
C=C(C)Cn1cnc2cc(C)c(C)cc21 |  | inactive: 1.43%
COc1ccc(-n2nc([N+](=O)[O-])c(=NCCCN3CCCC3=O)n2O)cc1 | active: 11.2 µM | 
Cc1ccc2[nH]c(=O)c3cc(C(=O)N(C)Cc4ccco4)sc3c2c1 | inconclusive: 6.31 µM [inhibitor, partial curve, poor fit] | 
O=S(=O)(Nc1ccc(F)cc1Cl)c1ccc(-c2cnc(C3CC3)o2)cc1 | inconclusive: 0.02 µM [inhibitor, full curve, poor fit] | 
CC(=O)c1c(C)[nH]c(C(=O)OCC(=O)Nc2ccc(C)cc2[N+](=O)[O-])c1C | inconclusive: 3.55 µM [inhibitor, full curve, poor fit] | 
O=C(NCc1cccc(Br)c1)C1CC(c2ccccc2C(F)(F)F)=NO1 (stereo not given) | inconclusive: 12.6 µM [inhibitor, partial curve, poor fit] | 
CC(C)(C)c1ccc(-c2cc(C(=O)NNC(=O)Nc3ccccc3)c3ccccc3n2)cc1 |  | inactive: -10.9%
Cc1ccccc1CNC(=O)Cn1ccc2cc(S(=O)(=O)N3CCCCCC3)ccc21 | inconclusive: 1.26 µM [inhibitor, partial curve, poor fit] | 
